{
  "source": "PubChem BioAssay AID504467",
  "about": "(National Center for Advancing Translational Sciences (NCATS), 2011)",
  "note": "In all, about 330,000 compounds went through this assay and about 7,700 (2.3%) were called active. This list was built around the results that the source calls inconclusive (neither active nor inactive); the mix of calls is not that of the screen. The call rests on the fitted dose curve; in most records, active means well fitted inhibition curve with a large enough effect; inconclusive means small, poorly fitted or top-dose-only effect, or effect the other way; inactive means flat fitted curve, though single readings scatter. Potencies of inconclusive entries are doubtful fits and often do not repeat. Potency means the concentration at half of the fitted maximal effect.",
  "data": [
    {"test": "qHTS screen for small molecules that inhibit ELG1-dependent DNA repair in human embryonic kidney (HEK293T) cells expressing luciferase-tagged ELG1; further: nearly all actives have a fitted effect of over 55% in size", "conditions": "HEK293T ELG1-luciferase reporter, luminescence, 16 h, DNA damage induced by 5-fluorouridine; series mostly up to 46.1 µM", "in_short": "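Reporter activity after DNA damage by 5-fluorouridine is monitored. Compound-treated cells incubate 16 hr at 37 °C, then ONE-Glo is added for 30 min before luminescence reading.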", "values": [
      {"smiles": "O=[N+]([O-])c1ccc2cn(-c3ccccc3)nc2c1", "Potency": "inconclusive: 8.2 µM [activator, partial curve]"},
      {"smiles": "COc1cc(/C=N/NC(=O)CSc2nc3ccccc3n2C)cc(OC)c1OC", "Potency": "inconclusive: 29.1 µM [inhibitor, single point]"},
      {"smiles": "O=C(CSc1ncnc2ccccc12)c1cccs1", "Potency": "inconclusive: 14.6 µM [activator, partial curve]"},
      {"smiles": "CN(Cc1cnccn1)C(=O)CC1C(=O)NCCN1Cc1c(F)cccc1Cl", "note": "(stereo unspecified)", "Potency": "inactive"},
      {"smiles": "CC1CCCC(C)N1C(=O)COC(=O)c1ccc(F)c(S(=O)(=O)N2CCOCC2)c1", "note": "(stereo unspecified)", "Potency": "inactive"},
      {"smiles": "O=c1[nH][nH]c(C(F)(F)F)c1C=Nc1ccccc1Cl", "Potency": "inactive"},
      {"smiles": "COc1cccc(CNC(=O)c2ccc(NC(=O)C3=CSCCO3)cc2)c1", "Potency": "inconclusive: 14.6 µM [activator, partial curve]"},
      {"smiles": "Cc1cnc(NC(=O)Nc2ccc(Cl)cc2)s1", "Potency": "inconclusive: 13 µM [activator, partial curve]"},
      {"smiles": "COc1ccc(/C=C2/SC(=O)N(CCC(=O)Nc3ccc(S(=O)(=O)Nc4nccs4)cc3)C2=O)cc1", "Potency": "inconclusive: 25.9 µM [activator, single point]"},
      {"smiles": "Cc1ccccc1NC(=O)COC(=O)c1cccc(S(=O)(=O)N2CCCCC2)c1", "Potency": "inconclusive: 10.3 µM [activator, partial curve]"},
      {"smiles": "c1csc(CNc2nc3ccccc3n2CCN2CCOCC2)c1", "Potency": "inactive"},
      {"smiles": "Cn1cc(Cl)c(C(=O)NC(=S)Nc2sc3c(c2C#N)CCCCC3)n1", "Potency": "inconclusive: 20.6 µM [activator, single point]"},
      {"smiles": "Cc1ccc(-n2c(C)nc3c(cnn3-c3ccc(F)cc3)c2=O)cc1", "Potency": "inconclusive: 35.5 µM [inhibitor, single point]"},
      {"smiles": "Cc1ccc(C(=O)OCC(=O)NCCc2ccccc2)cc1C", "Potency": "inconclusive: 32.6 µM [activator, partial curve, poor fit]"},
      {"smiles": "CC(C)NC(=O)Nc1ccc2c(c1)C(=O)N([C@H](C)CO)C[C@H](C)[C@@H](CN(C)C(=O)Nc1ccccc1)O2", "Potency": "inconclusive: 20.6 µM [activator, single point]"},
      {"smiles": "Cc1cc(-c2ccc(C)c(S(=O)(=O)NCCCN3CCN(c4ccccc4F)CC3)c2)on1", "Potency": "inconclusive: 25.9 µM [inhibitor, partial curve, poor fit]"},
      {"smiles": "N#CC1=C(N)OC2=C(C(=O)CCC2)C1c1ccoc1", "note": "(stereo unspecified)", "Potency": "inconclusive: 23.1 µM [activator, partial curve, poor fit]"},
      {"smiles": "C=CCSc1nnc(-c2cccnc2)o1", "Potency": "inconclusive: 13 µM [activator, partial curve, poor fit]"},
      {"smiles": "Cc1ccc(NC(=O)Cc2csc(-c3ccccc3)n2)cc1F", "Potency": "inconclusive: 29.1 µM [inhibitor, single point]"},
      {"smiles": "COC(=O)c1ccc2nc(NC(=O)C3CC3)sc2c1", "Potency": "inconclusive: 10.3 µM [activator, partial curve]"},
      {"smiles": "Cc1ccc(-c2nnn(CC(=O)N(CC(=O)NC3CCCCC3)c3ccc(F)c(Cl)c3)n2)o1", "Potency": "inconclusive: 29.1 µM [activator, partial curve, poor fit]"},
      {"smiles": "Cc1sc2ncnc(OCC(=O)N3CCN(S(=O)(=O)c4ccccc4)CC3)c2c1C", "Potency": "inconclusive: 29.1 µM [inhibitor, single point]"},
      {"smiles": "Cc1ccc2c(CN3CCN(S(=O)(=O)c4ccc(Cl)cc4)CC3)cc(=O)oc2c1C", "Potency": "inconclusive: 6.51 µM [inhibitor, single point]"},
      {"smiles": "Cc1cc(=O)[nH]c(SCC(=O)NCC2CCCCC2)c1C#N", "Potency": "inactive"},
      {"smiles": "Cc1cc(/C=N/NC(=O)c2ccncc2)c(C)n1-c1ccccc1", "Potency": "inconclusive: 16.4 µM [activator, partial curve]"},
      {"smiles": "CCOC(=O)c1cnc2c(Cl)c(Cl)ccc2c1N1CCN(C)CC1", "Potency": "inconclusive: 18.4 µM [inhibitor, partial curve, poor fit]"},
      {"smiles": "CC(C)=CCC/C(C)=C/CNC(=O)C[C@H]1C[C@H](C(=O)N(C(C)C)C(C)C)[C@@]2(C)c3[nH]c4cc(CCC(=O)N(C)C)ccc4c3CCN2C1=O", "Potency": "inconclusive: 25.9 µM [inhibitor, partial curve, poor fit]"},
      {"smiles": "Nn1c(Nc2ccccc2)nc2ccccc21", "Potency": "inconclusive: 18.4 µM [activator, partial curve]"},
      {"smiles": "O=C(Nc1ccc(Oc2ccc(NC(=O)Nc3ccccc3Cl)cc2)cc1)Nc1ccccc1Cl", "Potency": "inactive"},
      {"smiles": "COc1ccc(OCc2cc(C(=O)N3CCSCC3)no2)c(Cl)c1", "Potency": "inconclusive: 18.3 µM [activator, partial curve]"},
      {"smiles": "CC(=O)Nc1ccc(NC(=O)c2cc(-c3ccc(C)cc3O)n[nH]2)cc1", "Potency": "inconclusive: 2.06 µM [activator, full curve, poor fit]"},
      {"smiles": "COc1ccc(N2CCN(c3ccc(C(=O)O)cc3[N+](=O)[O-])CC2)cc1", "Potency": "inconclusive: 10.3 µM [activator, partial curve]"},
      {"smiles": "Fc1ccc(NC(=S)N2N=CCC2c2ccccc2)cc1", "note": "(stereo unspecified)", "Potency": "inconclusive: 16.4 µM [activator, partial curve]"},
      {"smiles": "CN(CCN1CCc2ccccc2C1)Cc1nc(Cc2ccccc2F)no1", "Potency": "inactive"},
      {"smiles": "CCNC(=O)COC(=O)c1sccc1C", "Potency": "inconclusive: 18.3 µM [activator, single point]"},
      {"smiles": "COCC(C)n1c(COc2ccccc2F)nnc1SCC(=O)Nc1oc(C)c2c(C)n[nH]c(=O)c12", "note": "(stereo unspecified)", "Potency": "inactive"},
      {"smiles": "Cc1c(OCC(=O)NCc2ccncc2)ccc2c3c(c(=O)oc12)CCCC3", "Potency": "inconclusive: 3.26 µM [inhibitor, full curve]"},
      {"smiles": "Cc1nc(C(=O)N2CCCC(C(=O)c3cccc(OC(C)C)c3)C2)cs1", "note": "(stereo unspecified)", "Potency": "inactive"},
      {"smiles": "CCCNC(=O)COc1ccccc1[N+](=O)[O-]", "Potency": "inconclusive: 13 µM [activator, partial curve]"},
      {"smiles": "O=C(COC(=O)COc1cccc(C(F)(F)F)c1)Nc1ccc(N2CCOCC2)cc1", "Potency": "inconclusive: 16.4 µM [activator, single point]"},
      {"smiles": "COc1ccc(CN2CCN(CC(O)Cn3c4ccccc4c4ccccc43)CC2)cc1", "note": "(stereo unspecified)", "Potency": "inactive"},
      {"smiles": "CC(Nc1nc(-c2cccnc2)nc2ccccc12)c1ccc(F)cc1", "note": "(stereo unspecified)", "Potency": "inconclusive: 11.6 µM [inhibitor, partial curve]"},
      {"smiles": "O=C(NCC1CCCO1)c1cc2cc(Cl)ccc2[nH]1", "note": "(stereo unspecified)", "Potency": "inconclusive: 14.6 µM [activator, partial curve]"},
      {"smiles": "Cc1cc(C)c2cccc(NC(=S)NC(=O)c3ccccc3)c2n1", "Potency": "inconclusive: 32.6 µM [inhibitor, partial curve, poor fit]"},
      {"smiles": "COc1cc(/C=C/C(=O)OCC(=O)NCCN2C(=O)CSC2=O)ccc1OCC#N", "Potency": "inactive"},
      {"smiles": "COc1ccc(N2CCOCC2)c(NC(=O)c2ccc(Br)o2)c1", "Potency": "active: 16.4 µM"},
      {"smiles": "Cc1ccc(N2C(=O)C(Cl)=C(NCc3ccccc3)C2=O)c(C)c1", "Potency": "inactive"},
      {"smiles": "C/C(=N\\Nc1nc2ccccc2[nH]1)c1ccc2c(c1)OCCO2", "Potency": "inconclusive: 6.51 µM [activator, single point]"},
      {"smiles": "COc1ccc2c(c1)sc(=NC(=O)CS(=O)(=O)c1ccc(F)cc1)n2C", "Potency": "inconclusive: 20.6 µM [inhibitor, single point]"},
      {"smiles": "O=C(Nc1ccc(Cl)cc1)C1CC(=O)n2c(nc3ccccc32)N1", "note": "(stereo unspecified)", "Potency": "inconclusive: 25.9 µM [activator, single point]"},
      {"smiles": "Cc1cc(/C=C2/C(=N)N3C(=NC2=O)SN=C3S(C)(=O)=O)c(C)n1-c1ccccc1", "Potency": "inconclusive: 8.2 µM [activator, partial curve]"},
      {"smiles": "COc1ccccc1NC(=O)/C=C/c1ccc2c(c1)OCO2", "Potency": "inconclusive: 6.51 µM [activator, partial curve]"},
      {"smiles": "O=C(Cn1cc(SCc2ccccc2Cl)c2ccccc21)N1CCOCC1", "Potency": "inconclusive: 5.8 µM [activator, partial curve]"},
      {"smiles": "Brc1ccc(-c2csc3[n+]2CCCCC3)cc1", "Potency": "inconclusive: 16.4 µM [inhibitor, single point]"},
      {"smiles": "Cc1ccc(-c2nnc(NC(=O)c3ccco3)s2)cc1", "Potency": "inconclusive: 9.2 µM [activator, partial curve]"},
      {"smiles": "Cc1cnc(C(=O)OCC(=O)Nc2cccc3ccccc23)cn1", "Potency": "inactive"},
      {"smiles": "Nc1nc(CCl)nc(N(c2ccccc2)c2ccccc2)n1", "Potency": "inconclusive: 23.1 µM [inhibitor, single point]"},
      {"smiles": "O=C(c1ccc2c(c1)OCO2)[C@@H]1[C@@H]2C(=O)N(C3CCCCC3)C(=O)[C@@H]2C2c3ccccc3C=CN21", "note": "(stereo partly specified)", "Potency": "inactive"},
      {"smiles": "CCOc1ccc(NC(=O)c2cc3cc4ccc(C)cc4nc3o2)cc1", "Potency": "inconclusive: 2.31 µM [inhibitor, single point]"},
      {"smiles": "Cc1noc(C)c1CSCC(=O)N1CCN(c2ccc(F)cc2)CC1", "Potency": "active: 11.2 µM"},
      {"smiles": "O=C(Cc1ccc(Cl)cc1)Nc1ccc(N2CCN(C(=O)c3ccco3)CC2)cc1", "Potency": "inconclusive: 23.1 µM [inhibitor, single point]"},
      {"smiles": "CCOC(=O)c1c(C)[nH]c(C(=O)CSc2nnc(-c3cccs3)n2Cc2ccccc2)c1C", "Potency": "inconclusive: 20.6 µM [inhibitor, partial curve, poor fit]"},
      {"smiles": "C/C(=N\\NC(=O)COc1ccc(C(C)(C)C)cc1)c1ccc(-n2ccnc2)cc1", "Potency": "inconclusive: 4.11 µM [activator, single point]"},
      {"smiles": "COc1ccc(C2CC(c3cccs3)=Nc3ccccc3S2)cc1OC", "note": "(stereo unspecified)", "Potency": "inconclusive: 29.1 µM [inhibitor, single point]"},
      {"smiles": "N#C/C(=N\\Nc1ccccc1)C(N)=S", "Potency": "inconclusive: 6.51 µM [inhibitor, single point]"},
      {"smiles": "CCO/C(C)=N/n1c2nc3ccccc3nc2c2c(=O)n(CC(C)C)c(C)nc21", "Potency": "inconclusive: 18.4 µM [inhibitor, single point]"}
    ]}
  ]
}
